The text below walks through data of patent publication US20030180744A1.

The chains behind the UniProt entries cited, without tags or fusion partners. Where a name states a change or a piece, a line headed by the entry shows the natural chain unless it says otherwise. A line that says so, or that is headed by a name, gives the form on record, which may keep a tag or linker.
hKGF receptor present in the PC-3 plasma membrane extracts (P21802, form named): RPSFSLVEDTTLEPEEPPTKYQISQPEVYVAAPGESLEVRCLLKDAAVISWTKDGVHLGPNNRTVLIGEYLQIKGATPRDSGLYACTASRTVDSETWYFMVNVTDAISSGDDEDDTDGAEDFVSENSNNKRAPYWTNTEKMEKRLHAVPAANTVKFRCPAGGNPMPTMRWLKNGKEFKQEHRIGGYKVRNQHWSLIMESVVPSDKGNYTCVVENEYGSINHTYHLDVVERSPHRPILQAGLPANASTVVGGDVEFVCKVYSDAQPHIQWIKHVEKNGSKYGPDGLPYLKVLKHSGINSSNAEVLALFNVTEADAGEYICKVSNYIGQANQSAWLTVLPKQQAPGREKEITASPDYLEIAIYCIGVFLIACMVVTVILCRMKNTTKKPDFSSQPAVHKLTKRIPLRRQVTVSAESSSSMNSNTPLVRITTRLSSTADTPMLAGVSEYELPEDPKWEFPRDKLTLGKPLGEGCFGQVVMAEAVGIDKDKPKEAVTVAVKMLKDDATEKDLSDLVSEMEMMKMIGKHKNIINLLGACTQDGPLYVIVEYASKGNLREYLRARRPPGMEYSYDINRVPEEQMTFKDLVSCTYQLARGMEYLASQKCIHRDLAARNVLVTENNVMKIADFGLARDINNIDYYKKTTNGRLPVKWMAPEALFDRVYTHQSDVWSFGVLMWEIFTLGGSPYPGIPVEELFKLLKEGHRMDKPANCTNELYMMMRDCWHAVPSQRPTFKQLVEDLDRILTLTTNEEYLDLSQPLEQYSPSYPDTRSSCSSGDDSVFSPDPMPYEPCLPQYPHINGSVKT

Experiment [1] concerns the target hKGF receptor present in the PC-3 plasma membrane extracts (UniProt P21802). In words: native gel electrophoretic mobility shift; the shift is lost with 100 fold excess of unlabeled hKGF. A general note: Mobility shift assays separate free from complexed probe on a gel.
For experiment [2] the target is unchanged. In words: native gel electrophoretic mobility shift (FIG. 11 legend).

Results are given in words; binding and its absence hold for the method and conditions named. Some results given as binding are weak or reduced against the parent protein; the word gives no strength.

B1: Recombinant human Keratinocyte Growth Factor (hKGF) (ligand, UniProt P21781 32-194, looked up)
chain: CNDMTPEQMATNVNCSSPERHTRSYDYMEGGDIRVRRLFCRTQWYLRIDKRGKVKGTQEMKNNYNIMEIRTVAVGIVAIKGVESEFYLAMNKEGKLYAKKECNEDCNFKELILENHYNTYASAKWTHNGGEMFVALNQKGIPVRGKKTKKEQKTAHFLPMAIT
As to B1, the binding entry in experiment [1] and in experiment [2] was “binds” each time.
